These are yes or no findings as the source states them, for the method shown. For some of these results: Binding seen in cells or lysates may run through a third protein. Some entries that bind do so weakly or less than the wild type. For some of these results: Tags and fused reporters may be left off the sequences shown.
Key:
[1] = molecular target: T1, TMEM33-HA (transmembrane protein 33, HA-tagged), transiently expressed (UniProt Q9CR67); assay: co-IP; PCT cells transfected with 2.5 ug of each plasmid, lysed 48-72 h later in NEB lysis buffer (150 mM NaCl, 10 mM Tris pH 7.4, 1% Triton X-100, 0.5% NP40); anti-HA 3F10 cross-linked to Protein A or G magnetic beads; Western blot
T1 sequence: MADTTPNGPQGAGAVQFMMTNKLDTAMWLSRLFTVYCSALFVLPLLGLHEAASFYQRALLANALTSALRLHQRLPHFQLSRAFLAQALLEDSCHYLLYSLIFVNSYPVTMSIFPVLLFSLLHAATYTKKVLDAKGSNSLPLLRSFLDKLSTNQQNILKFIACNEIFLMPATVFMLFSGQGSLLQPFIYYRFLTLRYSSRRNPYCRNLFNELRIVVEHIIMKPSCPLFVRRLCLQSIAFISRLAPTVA

[2] = molecular target: T2, HA-742X (PC2-742X, pathologic PC2 deletion mutant, HA-tagged) (UniProt Q13563); assay: as above
T2 sequence: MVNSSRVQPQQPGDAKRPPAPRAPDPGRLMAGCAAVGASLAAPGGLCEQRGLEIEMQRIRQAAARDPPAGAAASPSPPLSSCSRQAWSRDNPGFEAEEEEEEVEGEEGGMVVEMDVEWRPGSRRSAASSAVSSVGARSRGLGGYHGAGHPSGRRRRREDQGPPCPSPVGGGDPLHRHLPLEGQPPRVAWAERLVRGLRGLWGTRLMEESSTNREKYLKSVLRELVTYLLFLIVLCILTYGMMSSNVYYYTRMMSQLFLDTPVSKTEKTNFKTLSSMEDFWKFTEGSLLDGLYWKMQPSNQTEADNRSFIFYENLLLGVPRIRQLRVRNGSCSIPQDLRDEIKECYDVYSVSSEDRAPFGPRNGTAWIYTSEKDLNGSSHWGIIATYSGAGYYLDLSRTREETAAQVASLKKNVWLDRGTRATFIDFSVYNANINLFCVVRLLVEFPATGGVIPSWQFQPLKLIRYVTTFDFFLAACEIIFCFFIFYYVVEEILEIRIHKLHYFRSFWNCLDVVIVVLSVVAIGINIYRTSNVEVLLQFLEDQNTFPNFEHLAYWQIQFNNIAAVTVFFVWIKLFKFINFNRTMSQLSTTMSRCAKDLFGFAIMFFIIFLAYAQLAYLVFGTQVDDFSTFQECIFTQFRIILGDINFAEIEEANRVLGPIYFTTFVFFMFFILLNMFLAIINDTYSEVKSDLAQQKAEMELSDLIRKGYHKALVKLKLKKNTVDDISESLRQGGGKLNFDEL

[3] = molecular target: T3, HA-PC2 (polycystin-2, HA-tagged) (UniProt Q13563); assay: as above
T3 sequence: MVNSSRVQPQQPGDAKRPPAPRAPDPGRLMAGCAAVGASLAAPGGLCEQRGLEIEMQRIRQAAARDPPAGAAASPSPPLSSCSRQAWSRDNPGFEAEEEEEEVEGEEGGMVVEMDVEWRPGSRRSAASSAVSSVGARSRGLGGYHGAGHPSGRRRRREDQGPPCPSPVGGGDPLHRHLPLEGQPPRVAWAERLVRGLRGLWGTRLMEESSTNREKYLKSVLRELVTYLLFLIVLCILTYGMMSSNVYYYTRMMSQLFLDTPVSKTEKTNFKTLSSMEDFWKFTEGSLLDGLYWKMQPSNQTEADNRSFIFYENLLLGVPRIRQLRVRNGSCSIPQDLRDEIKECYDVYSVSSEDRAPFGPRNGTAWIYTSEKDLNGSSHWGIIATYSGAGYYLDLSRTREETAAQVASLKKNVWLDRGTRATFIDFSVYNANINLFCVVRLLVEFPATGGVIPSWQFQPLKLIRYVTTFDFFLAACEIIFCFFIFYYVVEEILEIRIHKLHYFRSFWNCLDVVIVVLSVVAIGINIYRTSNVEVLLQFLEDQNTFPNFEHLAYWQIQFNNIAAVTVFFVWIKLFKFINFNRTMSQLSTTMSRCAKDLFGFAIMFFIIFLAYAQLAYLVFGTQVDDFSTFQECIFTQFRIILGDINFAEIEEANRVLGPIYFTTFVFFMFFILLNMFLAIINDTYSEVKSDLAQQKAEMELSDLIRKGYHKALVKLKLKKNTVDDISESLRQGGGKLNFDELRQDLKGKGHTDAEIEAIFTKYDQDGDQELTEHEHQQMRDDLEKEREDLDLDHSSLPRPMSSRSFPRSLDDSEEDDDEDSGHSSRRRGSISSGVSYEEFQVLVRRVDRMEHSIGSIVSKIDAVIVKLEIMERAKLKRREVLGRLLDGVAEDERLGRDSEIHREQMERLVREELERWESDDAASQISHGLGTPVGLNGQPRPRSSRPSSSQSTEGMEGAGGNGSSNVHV

[4] = molecular target: T4, TMEM33-HA, conditionally expressed in a stably complemented TMEM33-/- PCT cell line (UniProt Q9CR67); assay: co-IP; stably complemented TMEM33-/- PCT cell lines expressing TMEM33-HA or HA-TMEM33 on DOX induction; anti-HA antibody against control rat IgG; native PC2 detected
T4 sequence: T1 sequence

[5] = molecular target: T5, HA-TMEM33, conditionally expressed in a stably complemented TMEM33-/- PCT cell line (UniProt Q9CR67); assay: as above
T5 sequence: T1 sequence

[6] = molecular target: T6, TMEM33 C term (amino acids 197–248), in frame with LexA (UniProt Q9CR67); assay: two-hybrid; LexA/B42 Grow'n'Glow system, yeast EGY48; bait TMEM33 terminus in frame with LexA, prey PC2 terminus in frame with B42; growth on -HIS-TRP-URA-LEU + galactose and GFP
T6 sequence: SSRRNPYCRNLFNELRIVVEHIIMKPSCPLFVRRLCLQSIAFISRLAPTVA

B1: Myc-PC2 (polycystin-2, Myc-tagged) (protein, UniProt Q13563 1-968)
chain: T3 sequence
**Q.** How did the binding [1] turn out when B1 was run?
**A.** The binding was “binds”.

B2: Myc-742X (PC2-742X, pathologic PC2 deletion mutant, Myc-tagged) (domain or fragment, UniProt Q13563 1-741)
chain: T2 sequence
**Q.** For B2, which binding [1] is on record?
**A.** Its binding is “binds”.

B3: Myc-TMEM33 (transmembrane protein 33, Myc-tagged) (protein, UniProt Q9CR67 1-247)
chain: T1 sequence
**Q.** B3 was tested. Which binding [2] did it give?
**A.** Its binding is “binds”.

**Q.** And the binding [3]?
**A.** The binding was “binds”.

B4: native polycystin-2 (PC2) of PCT cells (protein, UniProt O35245 1-966)
chain: MVNSRRVQPQPPGDAGRSPAPRASGPGRLVAGGAGLAVPGGLGEQRGLEIEMERIRQAAARDPPAGASASPSPPLSSCSRQAWSRDNPGFEAEEDDDDDEVEGEEGGMVVEMDVEWRPGSRRSASSSAVSSVGARGRGLGSYRGAAHLSGRRRRLEDQGAQCPSPAGGGDPLHRHLPLEGQPPRVAWAERLVRGLRGLWGTRLMEESNANREKYLKSVLRELVTYLFFLVVLCILTYGMMSSNVYYYTRTLSQLFIDTPVSKTEKTNFKTLSSMEDFWKFTEGSFLDGLYWKAQTSNHTQADNRSFIFYENLLLGVPRLRQLRVRNGSCSIPQDLRDEIKECYDVYSVSSEDRAPFGPRNGTAWMYTSEKELNGSSHWGIIASYSGAGYYLDLSRTREETAAQLAGLRRNFWLDRGTRAAFIDFSVYNANINLFCVVRLLAEFPATGGVVPSWQFQPVKLIRYVTAFDFFLAACEIIFCFFIIYYVVEEILEIRIHRLSYFRSFWNCLDVVIVVLSVVAMVINIYRMSNAEGLLQFLEDQNSFPNFEHVAYWQIQFNNISAVMVFLVWIKLFKFINFNRTMSQLSTTMSRCAKDLFGFTIMFSIIFLAYAQLAYLVFGTQVDDFSTFQECIFTQFRIILGDINFAEIEEANRVLGPLYFTTFVFFMFFILLNMFLAIINDSYSEVKSDLAQQKAEMELSDLIRKGCQKALVKLKLKRNTVDAISESLRQGGGKLNFDELRQDLKGKGHTDAEIEAIFTKYDQDGDQELTEREHQQMRDDLEKEREDLDLEHSSLPRPMSSRSFPRSLDDSEEEDDEDSGHSSRRRGSISSGVSYEEFQVLVRRVDRMEHSIGSIVSKIDAVIVKLEIMERAKLKRREVLGRLLDGVAEDARLGRDSEIHREQMERLVREELERWESDDAASQTGHGVSTQVGLGGQPHPRNPRPPSSQSAEGLEGGGGNGSANVHA
**Q.** How did the binding [4] turn out when B4 was run?
**A.** Its binding is “binds”.

**Q.** What about the binding [5] of the same binder?
**A.** Its binding is “binds”.

B5: PC2 N term (amino acids 1–222), in frame with B42 (domain or fragment, UniProt Q13563 1-222)
chain: MVNSSRVQPQQPGDAKRPPAPRAPDPGRLMAGCAAVGASLAAPGGLCEQRGLEIEMQRIRQAAARDPPAGAAASPSPPLSSCSRQAWSRDNPGFEAEEEEEEVEGEEGGMVVEMDVEWRPGSRRSAASSAVSSVGARSRGLGGYHGAGHPSGRRRRREDQGPPCPSPVGGGDPLHRHLPLEGQPPRVAWAERLVRGLRGLWGTRLMEESSTNREKYLKSVLR
**Q.** For B5, which binding [6] is on record?
**A.** The binding was “binds”.

Reference: PMC6497644
